PubChem BioAssay AID1259326 – Drosophila RNAi Screening Center | 2017

Purpose: 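Autophagy genes whose loss alters cell survival in toxic zinc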
Cell system: Drosophila S2R+ cells
Knock-down reagent: long dsRNA against Drosophila genes
Time to read-out: about 5 days (4 days of RNAi, then 1 day of zinc)
Challenge: zinc chloride added to 15 mM final for one day
Detection: 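Cellular ATP measured by luciferase light as a viable-cell proxy, after 4 days of RNAi and 1 day in 15 mM zinc chloride; replicate z-scores averaged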
Direction: averaged z-score: higher = more ATP than other wells, i.e. more surviving cells, after zinc; ATP luminescence: higher = more ATP, i.e. more surviving cells
Call rule: 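Called active when the averaged z-score lies outside -1.5 to 1.5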
The deposit covers 573 reagents; shown is an unselected part. Of all reagents, 39 (6.8%) got an active call. 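All actives have raised ATP, meaning more surviving cells; in these data active calls sit at averaged z-scores near 1.5 or above.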 Raw values are not corrected between plates. A number with no mark means an inactive call. Not given: the amount of reagent.

With Nup44A [SID104187040], what does the deposit list?
averaged z-score: 0.0898; ATP luminescence, replicate 1: 72019; ATP luminescence, replicate 2: 80441

For Nup44A [SID104206685], what was measured?
averaged z-score: 0.36; ATP luminescence, replicate 1: 99397; ATP luminescence, replicate 2: 87371

Which result is listed for Nup44A [SID104213477]?
averaged z-score: 1.15; ATP luminescence, replicate 1: 1.13e5; ATP luminescence, replicate 2: 82551

For Naa15-16 [SID104199232], how do the results read?
averaged z-score: -0.218; ATP luminescence, replicate 1: 96378; ATP luminescence, replicate 2: 69979

With Naa15-16 [SID104209835], what was measured?
averaged z-score: 0.0897; ATP luminescence, replicate 1: 82379; ATP luminescence, replicate 2: 70582

For Naa15-16 [SID104209836], what does the deposit list?
averaged z-score: -0.519; ATP luminescence, replicate 1: 64830; ATP luminescence, replicate 2: 63652

With SMC3 [SID104200019], what does the deposit list?
averaged z-score: 0.624; ATP luminescence, replicate 1: 84609; ATP luminescence, replicate 2: 1.09e5

With SMC3 [SID104218684], how do the results read?
averaged z-score: 0.212; ATP luminescence, replicate 1: 76307; ATP luminescence, replicate 2: 85381

What is on record for Rpt2 [SID104203558]?
averaged z-score: -0.332; ATP luminescence, replicate 1: 90178; ATP luminescence, replicate 2: 74918

How did the screen score Rpt2 [SID104209997]?
averaged z-score: 0.958; ATP luminescence, replicate 1: 1.08e5; ATP luminescence, replicate 2: 82671

With Rpt2 [SID104209998], what does the deposit list?
averaged z-score: 0.457; ATP luminescence, replicate 1: 79566; ATP luminescence, replicate 2: 82294

How did the screen score Sec61alpha [SID104183048]?
averaged z-score: 0.713; ATP luminescence, replicate 1: 86702; ATP luminescence, replicate 2: 98998

For Sec61alpha [SID104209286], what does the deposit list?
averaged z-score: 1.2; ATP luminescence, replicate 1: 86359; ATP luminescence, replicate 2: 99586

Which result is listed for Sec61alpha [SID104217510]?
averaged z-score: 1.55 (active); ATP luminescence, replicate 1: 1.05e5; ATP luminescence, replicate 2: 1.08e5

How did the screen score l(3)80Fj [SID104200778]?
averaged z-score: 0.357; ATP luminescence, replicate 1: 1.02e5; ATP luminescence, replicate 2: 85467

For l(3)80Fj [SID104216345], what does the deposit list?
averaged z-score: -0.0402; ATP luminescence, replicate 1: 83472; ATP luminescence, replicate 2: 70013

Which result is listed for l(3)80Fj [SID104218696]?
averaged z-score: -0.128; ATP luminescence, replicate 1: 64670; ATP luminescence, replicate 2: 80424

With Atg18a [SID104190735], how do the results read?
averaged z-score: 0.522; ATP luminescence, replicate 1: 1.10e5; ATP luminescence, replicate 2: 72483

For Atg18a [SID104209796], what does the deposit list?
averaged z-score: -0.146; ATP luminescence, replicate 1: 98305; ATP luminescence, replicate 2: 70870

For Atg18a [SID104209797], what was measured?
averaged z-score: 0.523; ATP luminescence, replicate 1: 91025; ATP luminescence, replicate 2: 92690

With CG17698 [SID104191699], what was measured?
averaged z-score: 0.0793; ATP luminescence, replicate 1: 93210; ATP luminescence, replicate 2: 76359

Which result is listed for CG17698 [SID104214541]?
averaged z-score: -0.189; ATP luminescence, replicate 1: 81179; ATP luminescence, replicate 2: 68778

For CG17698 [SID104218697], what was measured?
averaged z-score: -0.331; ATP luminescence, replicate 1: 64525; ATP luminescence, replicate 2: 72431

What is on record for CG12795 [SID104180146]?
averaged z-score: 0.0488; ATP luminescence, replicate 1: 90030; ATP luminescence, replicate 2: 93924

For CG12795 [SID104218690], what was measured?
averaged z-score: -0.0236; ATP luminescence, replicate 1: 69155; ATP luminescence, replicate 2: 75779

For CG9784 [SID104200002], what was measured?
averaged z-score: -0.516; ATP luminescence, replicate 1: 83340; ATP luminescence, replicate 2: 72088

With CG9784 [SID104206748], what does the deposit list?
averaged z-score: -0.56; ATP luminescence, replicate 1: 80355; ATP luminescence, replicate 2: 63513

With CG9784 [SID104218729], what does the deposit list?
averaged z-score: -0.0966; ATP luminescence, replicate 1: 74352; ATP luminescence, replicate 2: 73596

For Cul3 [SID104206429], what was measured?
averaged z-score: 0.613; ATP luminescence, replicate 1: 1.13e5; ATP luminescence, replicate 2: 93782

With Cul3 [SID104215966], what was measured?
averaged z-score: -0.278; ATP luminescence, replicate 1: 76307; ATP luminescence, replicate 2: 72817

What did the screen give for Cul3 [SID104218735]?
averaged z-score: 0.0243; ATP luminescence, replicate 1: 70287; ATP luminescence, replicate 2: 78023

How did the screen score Cul3 [SID104218736]?
averaged z-score: -0.448; ATP luminescence, replicate 1: 62347; ATP luminescence, replicate 2: 71282

Sorted by “averaged z-score” (low to high): 4 of the entries above
CG9784 [SID104206748]: averaged z-score = -0.56; ATP luminescence, replicate 1 = 80355; ATP luminescence, replicate 2 = 63513
CG9784 [SID104200002]: averaged z-score = -0.516; ATP luminescence, replicate 1 = 83340; ATP luminescence, replicate 2 = 72088
CG12795 [SID104218690]: averaged z-score = -0.0236; ATP luminescence, replicate 1 = 69155; ATP luminescence, replicate 2 = 75779
CG12795 [SID104180146]: averaged z-score = 0.0488; ATP luminescence, replicate 1 = 90030; ATP luminescence, replicate 2 = 93924
